29 sequences from PubChem BioAssay AID1508600 (Functional Genomics Laboratory (NCATS/FGL), 2020) can be followed below.

Screen size: about 53,000 sequences; about 3,700 (7%) were called active.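 Rule for the calls: active = gene knockdowns whose robust z-score for IL-1 alpha signal is at least 2 or at most -2, so actives lie on both sides; inactive = the rest.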 The list shows a part of the results.

A short description of the assay: Components of the Cytosolic LPS Sensing Pathway: Gene Identification via Genome-wide siRNA Screen.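 Note: robust z of the log signal after scaling to non-targeting control siRNA wells of the plate.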 As to conditions: RAW264.7 macrophages, IL-1a HTRF, actives lie on both sides, screened at 100 nM (by protocol), cells primed 5 h with Pam3CSK4 first. In short, it runs like this:
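Read-out: IL-1a HTRF on supernatant, divided by plate negative-control median ×100, log-transformed and converted to robust z-score. Cells were RAW264.7 given 100 nM siRNA, Pam3CSK4-primed 5 hours, then LipidA-transfected 24 hour.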
Background: TR-FRET usually uses a lanthanide donor and a delayed reading to cut background.
For “GCCAGUUCACCUGAUCUUATT against 2610507B11Rik”, the z-score is inactive: 0.355. The same measure for GCGACUGACCUUCAAACUGTT against Piwil4: inactive: 0.193; for GGUUCCACAGUGGCAAAUGTT against Vmn1r202: inactive: 0.957; for GGACCUUGACGUACAUCAATT against Prelid3a: inactive: 1.29. To GGAGAUUGUCAACAAAUGATT against Slc25a16 belongs inactive: -1.4; to “GGGAAUGUGGCUUCACUUUTT against 2210409E12Rik”, inactive: 1.14. The same measure for GGAACAAGGAAGUUAAGGATT against Olfr1044: inactive: 0.251; for GCCUAUAAGCCUAAUGAAATT against Rnf133: inactive: -0.664. Regarding GGUAAUAACCCUUAAUAAGTT against Akirin2, the z-score is inactive: 0.572. Consider GGGAAGAGAAUGAUUAAAUTT against Zmat4, for which the z-score was inactive: -0.933. The same measure for GGUUGUGUUCAAGAAAGGGTT against Gcgr: inactive: -0.225; for CCGGAAAUUUUCUUUGCCCTT against Sec23ip: inactive: -1.12; for GCUGAUGUGAAUCCAUCCATT against Rbck1: inactive: -0.212.

For the sequence GGUGAGCUUGGUUUCUAAATT against Gdf15, the z-score is active: 2.28. To GGAGAUUUUCAUGUUAUCATT against Eral1 belongs inactive: -1.39; to GGUUCUUGAGCCUAAACAATT against Cd22, inactive: 0.522; to GGAGACCCUUGAUAGCCCATT against Celf6, inactive: -1.26. To CGUGCAGUGUGCUUCACAATT against Smarcad1 belongs inactive: -1.89; to CGACAUUGCCUGGAACUUUTT against Gpx1, inactive: 1.2. To GGCCAUUGUGAAAUCCAGCTT against Chrnb3 belongs inactive: 0.00234; to GCACCAGCUCUUUUGAUAUTT against L2hgdh, inactive: 0.526. In the case of GGACCACACGUCAAAAUGATT against Pyurf, the z-score is inactive: -0.842. The same measure for GGCAGGAUCACAGUCCUAGTT against Pcp4: inactive: 0.432; for GGAGCUCUAAAAUUGACUUTT against Zfp92: inactive: 1.17; for CCACCAAAAACAAAGGACCTT against BC061195: inactive: -1.08. The same measure for GGAAGUUAGCUCCUAAAUATT against Pirt: inactive: -0.383. CCCAAUACCAAGUUAUUCCTT against Ms4a8a: the z-score was inactive: 0.52. Take “GCGAAAUGGACAGAUGUGATT against 2610001J05Rik”: the z-score is inactive: -1.94. As to “GGACAUCAGUGUGUACAUUTT against 1700010I14Rik”, the z-score was inactive: 0.443.
